Data from the odorant receptor screen of Mainland et al. (2015).
Values joined by “and” are separate entries in the source; they are usually repeats but may differ in a detail not shown here. Equal values may be shown once. Some of the results follow. Single wells; the ratio to wells without odorant was worked out here, and repeats agree poorly.

Key:
Assay in all cases: odorant receptor activation (CRE luciferase / Renilla) (fold of no-odor wells); higher = more activation
Conditions in all cases: 100 µM
[1] = tested on: OR10R2 clone 1400
[2] = tested on: OR10T2 clone 1032
[3] = tested on: OR10V1 Q101L/V117A/Q123W clone 1520
[4] = tested on: OR10W1 R263Q clone 1176
[5] = tested on: OR10X1 clone 1368
[6] = tested on: OR10X1 clone 1516
[7] = tested on: OR10Z1 clone 1026
[8] = tested on: OR11A1 clone 1062
[9] = tested on: OR11H1 clone 1558
[10] = tested on: OR11H12 clone 1302

Structure (SMILES) | odorant receptor activation [1] | odorant receptor activation [2] | odorant receptor activation [3] | odorant receptor activation [4] | odorant receptor activation [5] | odorant receptor activation [6] | odorant receptor activation [7] | odorant receptor activation [8] | odorant receptor activation [9] | odorant receptor activation [10]
CCCCCOC(C)=O [n-amyl acetate] | 0.746 | 1.51 | 0.597 and 0.79 | 0.568 | 0.992 | 1.25 and 0.904 | 1.02 | 1.1 | 1.22 | 0.535
C=CCc1ccc(OC(C)=O)c(OC)c1 [eugenol acetate] | 1.77 | 1.68 | 2.21 | 1.82 | 1.59 | 1.96 | 2.01 | 1.97 | 1.76 | 1.67
CCCCCCCCCC=O [decyl aldehyde] | 1.32 | 1.11 | 1.12 | 1.16 | 1.25 | 1.23 | 1.08 | 1.08 | 0.882 | 1.4
CC1=CCC(C(C)(C)O)CC1 (centres undefined) [terpineol] | 0.923 | 1.08 | 0.773 | 1.29 | 0.68 | 0.666 | 0.915 | 1.68 | 1.23 | 1.04
CC(C)C=O [isobutyraldehyde] | 0.905 | 0.703 | 1.13 and 1.1 | 1.09 | 0.903 | 1.09 and 0.908 | 1.28 | 1.4 | 0.786 | –
COC(=O)c1ccccc1O [methyl salicylate] | 1.39 | 1.02 | 1.02 | 0.796 | 0.901 | 0.885 | 0.925 | 1.13 | 0.892 | 0.991
CCCCCC(=O)O [caproic acid] | 0.154 | 0.72 | 0.802 | 1.03 | 0.188 | 1.17 | 0.918 | 0.949 | 0.715 | 0.782
CC1COCc2cc3c(cc21)C(C)(C)C(C)C3(C)C (centres undefined) [galaxolide] | 2.99 | 2.97 | 2.21 and 6.56 | 4.57 | 4.66 | 1.55 and 4.53 | 3.13 | 2.94 | 0.912 and 1.93 | 1.54 and 4.29
COc1cc(C)ccc1O [2-methoxy-4-methylphenol] | 0.649 | 1.89 | 0.76 | 1.12 | 0.802 | 0.792 | 2.15 | 1.83 | 1.04 | 1.7
C=C(C)C1CC=C(C)C(=O)C1 (centres undefined) [r-carvone] | 1.05 | 0.893 | 0.909 | 0.985 | 0.682 | 0.741 | 0.841 | 1.26 | 0.627 | 0.924
CC1CCC(C(C)C)C(O)C1 (single isomer, unassigned; (-)) [(-)-menthol] | 0.364 | 3.94 | 2.97 | 1.11 | 0.792 | 3.77 | 3.43 | 6.31 | 1.12 | 1.17
c1cnccn1 [pyrazine] | 1.04 | 1.05 | 0.924 | 0.9 | 0.62 | 0.571 | 0.778 | 1.12 | 0.911 | 0.91
C=C(C)C1CC=CCC1 (centres undefined) [r-limonene] | 1.11 and 0.657 | 1.01 and 1.6 | 0.949 and 0.503 and 0.89 | 0.917 and 0.312 | 0.753 and 1.17 | 0.989 and 1.08 and 0.877 | 0.911 and 1.12 | 1.32 and 1.24 | 1.02 | 0.787 and 0.437
CC(=O)C(C)=O [diacetyl] | 1.19 | 0.959 | 1.77 | 1.38 | 0.95 | 1.64 | 1.15 | 0.895 | 0.701 | 1.25
CCC1(O)C2(C)CCC(C2)C1(C)C (centres undefined) [2-ethylfenchol] | 0.785 | 3.15 | 0.953 | 0.888 | 0.634 | 1.18 | 3.61 | 29 | 1.34 | 1.04
O=C1CCCCCCCCCCCC(=O)OCCO1 [ethylene brassylate] | 1.49 | 1.24 | 1.49 | 1.66 | 1.81 | 1.51 | 1.49 | 2.14 | 1.16 | 1.55
COc1ccccc1O [guaiacol] | 0.703 | 1.17 | 0.564 and 1.01 | 1.14 | 1.03 | 0.915 and 1.23 | 1.09 | 1.42 | 0.786 | 1.06 and 0.823
CC1CCC(C(C)C)C(O)C1 (single isomer, unassigned; (+)) [(+)-menthol] | 0.635 | 4.53 | 1.44 | 1.17 | 0.56 | 1.11 | 3.35 | 4.42 | 1.01 | 1.2
CC(C)=CCCC(C)=CC=O [citral] | 0.15 | 1.02 | 1.12 | 1.04 | 0.19 | 1.44 | 1.33 | 0.923 | 1.19 | 1.42
CC(C)CCC(=O)O [4-methylvaleric acid] | 0.845 | 1.82 | 0.897 | 0.883 | 0.878 | 0.862 | 2.05 | 2.06 | 0.934 | 1.31
CC12CCC(CC1)C(C)(C)O2 [cineole] | 0.125 | 0.727 | 0.834 | 0.728 | 0.212 | 1.14 | 0.994 | 0.853 | 0.863 | 0.813
CCCCCCCCOC(C)=O [octyl acetate] | 1.35 | 1.15 | 1.01 | 1.08 | 1.02 | 0.87 | 1 | 1.13 | 0.99 | 1.53
C=CCc1ccc(OC)c(OC)c1 [eugenol methyl ether] | 1.68 | 1.61 | 2.17 | 1.55 | 1.5 | 1.7 | 1.41 | 1.46 | 0.782 | 1.35
CC(=O)OCC=C(C)CCC=C(C)C [geranyl acetate] | 1.09 | 1.62 | 0.644 and 1.51 | 1.27 | 1.62 | 1.16 and 1.71 | 2.31 | 2.17 | 1.29 | 1.38 and 0.95
c1ccc(Oc2ccccc2)cc1 [diphenyl ether] | 1.08 | 0.929 | 1.11 | 0.943 | 0.955 | 1.34 | 0.842 | 1.1 | 0.695 | 1.27
O=C1CCCCCCCCCCCCCCO1 [pentadecalactone] | 0.934 | 0.939 | 0.857 | 0.728 | 0.814 | 0.776 | 0.732 | 0.991 | 0.71 | 0.762
CC12CCC(C1)C(C)(C)C2=O (centres undefined) [fenchone] | 1.01 | 0.945 | 1.41 | 1.14 | 0.935 | 1.22 | 0.932 | 1.84 | 0.818 | 0.998

Record cards, from the list above. Order of values: odorant receptor activation [1] | odorant receptor activation [2] | odorant receptor activation [3] | odorant receptor activation [4] | odorant receptor activation [5] | odorant receptor activation [6] | odorant receptor activation [7] | odorant receptor activation [8] | odorant receptor activation [9] | odorant receptor activation [10]
CC(=O)C(C)=O [diacetyl] as listed: 1.19 | 0.959 | 1.77 | 1.38 | 0.95 | 1.64 | 1.15 | 0.895 | 0.701 | 1.25
C=CCc1ccc(OC)c(OC)c1 [eugenol methyl ether] as listed: 1.68 | 1.61 | 2.17 | 1.55 | 1.5 | 1.7 | 1.41 | 1.46 | 0.782 | 1.35
